# According to PubChem BioAssay AID2685 (National Center for Advancing Translational Sciences (NCATS), 2010):
# Some of the results follow. Further columns of the screen follow, without active or inactive calls. Most of these compounds were active or inconclusive in the main read-out, so they are no random draw. The note in brackets gives the kind of curve behind each potency; many fits are weak.
# Experiment: qHTS Assay for Lipid Storage Modulators in Drosophila S3 Cells;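 for cell number change: cells counted by Cell Tracker Red CMTPX staining in the red channel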
# Settings: BODIPY lipid droplet fluorescence, 18-24 h; for cell number change: measured here: cell count max response, cells fed with added oleic acid
# Outline: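 Drosophila S3 cells loaded with oleic acid (400 uM, as added) and compounds at several concentrations; lipid droplets imaged by 488-nm laser-scanning cytometry, 500–530 nm intensity and object ratio to cell channel. Percent activity normalized to 20 uM Triacsin C.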
# [1] = measured here: cell number channel AC50, cells fed with added oleic acid
# [2] = measured here: lipid fluorescence (Fed channel) AC50, cells fed with added oleic acid
structure (smiles),measurement,setting,value
O=C(CNC(=O)c1ccc(S(=O)(=O)N2CCCC2)cc1)N/N=C/c1ccc(F)cc1,cell number change,,31.7%
same,AC50,[1],"4.11 µM [rising, partial curve]"
same,AC50,[2],"2.91 µM [rising, single point]"
COc1cccc(-c2nc(CS(=O)(=O)CC(=O)NCc3ccc(Cl)cc3)c(C)o2)c1,cell number change,,-23.6%
same,AC50,[2],"29.1 µM [falling, single point]"
CC(NC(=O)c1cccc(S(=O)(=O)N(C)C)c1)C1CC2CCC1C2 (stereo unspecified),AC50,[2],"0.00461 µM [falling, full curve, poor fit]"
O=C(NCCCc1ccccc1)c1cccc(S(=O)(=O)N2CCOCC2)c1,cell number change,,3.88%
same,AC50,[1],"6.51 µM [falling, single point]"
same,AC50,[2],"6.51 µM [falling, single point]"
Cc1cc(C)nc(NS(=O)(=O)c2ccc(NC(=S)NC(=O)c3ccco3)cc2)n1,cell number change,,-29.1%
same,AC50,[2],"32.6 µM [falling, single point]"
C=CCOc1c(Br)cc(/C=N/O)cc1OCC,AC50,[1],"4.61 µM [falling, partial curve, poor fit]"
CCc1ccccc1NC(=S)N(CCOC)C(C)c1ccco1 (stereo unspecified),cell number change,,-1.17%
same,AC50,[2],"18.4 µM [rising, partial curve]"
COc1ccc(-c2cc(C(=O)Nc3cccnc3)no2)cc1OC,cell number change,,-7.94%
O=S1(=O)N=C(N(CCO)/N=C/C=C/c2ccccc2)c2ccccc21,cell number change,,-39.2%
CC1(C(=O)O)CCC(C(=O)Nc2cccc(F)c2)C1(C)C (stereo unspecified),cell number change,,-6.38%
same,AC50,[2],"0.00517 µM [falling, full curve]"
CC(O)CSc1nc2c(c(=O)[nH]c(=O)n2C)n1CC(O)COc1ccccc1 (stereo unspecified),cell number change,,0.342%
CN(C)CC#Cc1cncc(C(=O)NNC(=O)Nc2ccc(Cl)cc2)c1,cell number change,,14.8%
same,AC50,[2],"0.517 µM [falling, single point]"
CC(=O)N1CCN(Cc2nc3cc(Cl)ccc3c(=O)[nH]2)CC1,AC50,[2],"29.1 µM [rising, single point]"
Cc1ccc(Cl)cc1NC(=O)CCS(=O)(=O)c1cccc2nonc12,cell number change,,29.6%
CC1CCCCC12NC(=O)N(CC(=O)OCc1cccc(F)c1)C2=O (stereo unspecified),cell number change,,12.9%
same,AC50,[2],"5.8 µM [rising, partial curve]"
O=C(CCC(=O)N1CCOCC1)NCCc1ccc(F)cc1,cell number change,,-0.211%
same,AC50,[2],"0.58 µM [falling, single point]"
CC(=O)c1ccc(NC(=O)C(C)Nc2ccc(Cl)cc2)cc1 (stereo unspecified),cell number change,,12.3%
same,AC50,[2],"0.82 µM [rising, full curve, poor fit]"
Cc1ccc(-n2cccc2C(=S)N=P(N(C)C)(N(C)C)N(C)C)cc1,cell number change,,-30%
same,AC50,[2],"1.03 µM [falling, full curve]"
CCOC(=O)C1=C(C)Nc2nc3ccccc3n2C1c1ccccc1 (stereo unspecified),AC50,[1],"0.00411 µM [rising, full curve, poor fit]"
COc1ccc(C(=O)OCC(=O)NC2CCCC2)c(OC)c1,AC50,[2],"6.51 µM [rising, single point]"
CC(C)(C)N1CCC1CN (stereo unspecified),cell number change,,-28.3%
same,AC50,[2],"29.1 µM [falling, single point]"
CC(C)c1cc(Br)ccc1OCCCN1C(=O)NC(C)(C)C1=O,AC50,[1],"2.31 µM [rising, partial curve]"
same,AC50,[2],"29.1 µM [falling, single point]"
Cc1nn(C2CCS(=O)(=O)C2)c2nc(C3CC3)cc(C(=O)Nc3ccc(C(N)=O)cc3)c12 (stereo unspecified),cell number change,,39.1%
same,AC50,[1],"29.1 µM [rising, single point]"
CN(CC(=O)Nc1ccc2c(c1)OCCO2)S(=O)(=O)c1cccc2cccnc12,cell number change,,-9.39%
same,AC50,[1],"0.517 µM [falling, partial curve]"
same,AC50,[2],"0.291 µM [falling, partial curve]"
Cc1ccnc(NC(=S)N2CCN(c3cccc(C(F)(F)F)c3)CC2)c1,cell number change,,12.1%
same,AC50,[1],"0.259 µM [rising, full curve, poor fit]"
CNC(=O)C1CC(=O)N(CCc2ccccc2)C(=Nc2ccc(OC)cc2)S1 (stereo unspecified),cell number change,,-19.3%
same,AC50,[1],"1.64 µM [falling, partial curve, poor fit]"
same,AC50,[2],"3.26 µM [falling, single point]"
Cc1ccc(NC(=O)N2CCSc3ccccc32)cc1,cell number change,,32.1%
same,AC50,[1],"16.4 µM [rising, single point]"
COc1ccc(OC)c(-n2c(=S)[nH]c3cc(C(=O)N4CCC(C(N)=O)CC4)ccc3c2=O)c1,cell number change,,-33.9%
same,AC50,[1],"0.231 µM [falling, full curve, poor fit]"
same,AC50,[2],"0.651 µM [falling, full curve, poor fit]"
COc1ccc(C(=O)O)cc1NCc1cccnc1,cell number change,,8.84%
same,AC50,[2],"0.58 µM [rising, single point]"
CCCCn1c(N)c(N(CC(C)C)C(=O)CC(NC(=O)c2ccccc2)c2ccccc2)c(=O)[nH]c1=O (stereo unspecified),cell number change,,-7%
COc1ccccc1N1CCN(/N=C/c2ccc(O)c(O)c2)CC1,cell number change,,-16%
same,AC50,[2],"20.6 µM [falling, single point]"
Clc1cccc(Cl)c1CO/N=C/c1c(-c2ccccc2)nc2n1CCS2,cell number change,,9.77%
COc1ccc2nc(NC(=O)c3ccc(NS(=O)(=O)c4cccs4)cc3)sc2c1,cell number change,,47.2%
same,AC50,[1],"29.1 µM [rising, single point]"
CC(=O)c1ccccc1Oc1cc(NN2CCCCC2)c([N+](=O)[O-])cc1[N+](=O)[O-],cell number change,,-2.99%
same,AC50,[2],"29.1 µM [rising, single point]"
COc1cccc(NC(=O)Nc2nc(SC(C)(C)C)ns2)c1,cell number change,,-41.1%
same,AC50,[1],"14.6 µM [falling, single point]"
same,AC50,[2],"6.51 µM [falling, single point]"
O=C(CN1C(=O)/C(=C/c2cccc(Br)c2)SC1=S)NC1=NCCS1,cell number change,,15.4%
O=C(N/N=C/c1ccc2c(c1)OCO2)c1ccc(NC(=O)c2ccccc2Cl)cc1,cell number change,,15%
same,AC50,[2],"29.1 µM [falling, single point]"
Cc1ccc(S(=O)(=O)N2CCOCC2)cc1C(=O)OC1CCCCC1=O (stereo unspecified),cell number change,,-32.3%
same,AC50,[1],"29.1 µM [falling, single point]"
O=C(O/N=C1\CCCc2ccccc21)c1cccs1,cell number change,,22.4%
same,AC50,[2],"2.06 µM [falling, partial curve]"
CC(C)NC(=O)C(=O)Nc1cc2c3c(c1)CCC(=O)N3CCC2,AC50,[2],"6.51 µM [falling, single point]"
C=CCn1c(COc2ccccc2F)nnc1SCC(=O)c1c[nH]c2ccccc12,cell number change,,-10.7%
same,AC50,[2],"20.6 µM [falling, partial curve]"
COc1ccc(OC)c(C(C(=O)NC2CCCCC2)N(C(=O)c2snc(C(N)=O)c2N)c2ccccc2OC)c1 (stereo unspecified),cell number change,,467%
same,AC50,[2],"29.1 µM [falling, single point]"
O=C(O)CC(C(=O)Nc1ccc(Cl)c(Cl)c1)C1CCCO1 (stereo unspecified),AC50,[2],"18.4 µM [falling, partial curve]"
Cc1ccc(-c2nc(-c3ccccc3)no2)cc1,cell number change,,-0.229%
Cc1ccc(/C=N/n2c(-c3ccncc3)n[nH]c2=S)cc1,cell number change,,52.1%
same,AC50,[1],"5.17 µM [rising, full curve]"
same,AC50,[2],"1.84 µM [rising, single point]"
CCn1c(CC(=O)Nc2cccc(Cl)c2Cl)nnc1SCCOc1ccc(OC)cc1,cell number change,,-12.9%
CCC(C)N(C(=O)CSc1nnc2ccccn12)C1CCS(=O)(=O)C1 (stereo unspecified),cell number change,,-15.3%
COC(=O)C(C)(C)ONC(=O)Nc1ccccc1Cl,cell number change,,5.46%
same,AC50,[1],"0.103 µM [falling, full curve, poor fit]"
same,AC50,[2],"5.17 µM [falling, full curve]"
Cc1cc(C)n(-c2ccc(C(=O)Nc3ccc(C)c(S(=O)(=O)N4CCOCC4)c3)cc2)n1,cell number change,,-29.6%
same,AC50,[2],"4.61 µM [falling, single point]"
CC(C)C(CO)NC(=O)CC(=O)NC(CO)C(C)C (stereo unspecified),cell number change,,1.36%
same,AC50,[2],"29.1 µM [falling, single point]"
Cc1cc(C(=O)N2CCCC(Nc3ccccc3)C2)c2ccc(F)cc2n1 (stereo unspecified),AC50,[2],"4.11 µM [falling, single point]"
O=C(O)c1ccc(/C=C/c2nc3sc4c(c3c(=O)[nH]2)CCC4)cc1,cell number change,,-18.5%
CC(C)c1ccc(CNc2ccc3c(c2)ncn3C)cc1,cell number change,,-8.15%
same,AC50,[2],"25.9 µM [falling, single point]"
Cc1ccc(-c2csc3nc[nH]c(=S)c23)cc1C,cell number change,,-23.1%
same,AC50,[1],"6.51 µM [rising, single point]"
CCN1CCN(CCCNC(=O)CS(=O)(=O)Cc2nc(-c3cccc(OC)c3)oc2C)CC1,AC50,[2],"6.51 µM [falling, single point]"
CCOc1ccccc1NC(=O)CN(c1nccs1)S(=O)(=O)c1ccc(N)cc1,cell number change,,17.4%
same,AC50,[2],"18.4 µM [rising, partial curve, poor fit]"
Cc1ccc(C(=O)NC2CCCC2)s1,cell number change,,-7.04%
same,AC50,[2],"23.1 µM [rising, single point]"
COc1ccc(N2CCN(S(=O)(=O)CCNC(=O)C3CCCCC3)CC2)cc1,cell number change,,13.7%
COc1ccc(-c2cc(C3CC3)nc(N)c2C#N)cc1,AC50,[1],"0.731 µM [rising, single point]"
same,AC50,[2],"29.1 µM [rising, single point]"
CCC(CC)C(=O)Nc1cc(NC(=O)C(CC)CC)cc(C(=O)O)c1,cell number change,,-171%
same,AC50,[1],"18.4 µM [falling, partial curve]"
same,AC50,[2],"18.4 µM [falling, partial curve]"
CC1(C)Cc2c(C#N)c(OCC(=O)c3ccc(Cl)cc3)nc(-c3ccoc3)c2CO1,cell number change,,-2.44%
same,AC50,[2],"0.731 µM [rising, full curve, poor fit]"
CC(C)N(Cc1cc2ccccc2[nH]c1=O)C(=O)c1cccc([N+](=O)[O-])c1,cell number change,,-11.1%

# Not a retest: entries from further up.
structure (smiles),measurement,setting,value
C=CCn1c(COc2ccccc2F)nnc1SCC(=O)c1c[nH]c2ccccc12,cell number change,,-10.7%
same,AC50,[2],"20.6 µM [falling, partial curve]"
COc1ccc(OC)c(C(C(=O)NC2CCCCC2)N(C(=O)c2snc(C(N)=O)c2N)c2ccccc2OC)c1 (stereo unspecified),cell number change,,467%
same,AC50,[2],"29.1 µM [falling, single point]"
O=C(O)CC(C(=O)Nc1ccc(Cl)c(Cl)c1)C1CCCO1 (stereo unspecified),AC50,[2],"18.4 µM [falling, partial curve]"

# Reprinted at random: 2 entries already listed.
structure (smiles),measurement,setting,value
CC(C)NC(=O)C(=O)Nc1cc2c3c(c1)CCC(=O)N3CCC2,AC50,[2],"6.51 µM [falling, single point]"
COC(=O)C(C)(C)ONC(=O)Nc1ccccc1Cl,AC50,[2],"5.17 µM [falling, full curve]"
